Laboratory results as given in patent publication US20180125995A1, “ANTI-STAPHYLOCOCCUS AUREUS ANTIBODY RIFAMYCIN CONJUGATES AND USES THEREOF” (priority 2014, published 2018).
Some entries share one result that the patent states for a list of compounds.

Tested on: S. aureus (USA300 NRS384 strain) in murine macrophages
Experiment: In vitro macrophage assay
Type: cell-based, Staphylococcus aureus
Description: S. aureus (USA300 NRS384 strain) was incubated with various doses (100 ug/mL, 10 ug/mL, 1 ug/mL or 0.1 ug/mL) of an anti-S. aureus unconjugated antibody, 103 AAC loaded with 1.9 average antibiotic molecules per antibody (AAR2) or with 102 AAC loaded with 3.9 average antibiotic molecules per antibody (AAR4) for 1 hour to permit binding of the antibody to the bacteria. The resulting opsonized bacteria were fed to murine macrophages and incubated at 37° C. to permit phagocytosis (in vitro macrophage assay). After 2 hours, the infection mix was removed and replaced with normal growth media supplemented with 50 ug/mL of gentamycin to kill any remaining extracellular bacteria. The total number of surviving intracellular bacteria was determined 2 days later by plating serial dilutions of the macrophage lysates on Tryptic Soy Agar plates.

## thio-rF1-LC-V205C-MC-(CBDK-cit)-PAB-(dimethylpipBOR) [AAC 103]
  dose yielding maximal killing: ≥ 10 µg/mL
